The supplement of paper PMC11006884
This is a selection; strong and weak results do not stand in their true shares.

Chains of the proteins cited; added tags and fusions are not shown. Lines headed by an entry give the natural chain unless they say otherwise; changes in a name come on top.
UniProt O43164: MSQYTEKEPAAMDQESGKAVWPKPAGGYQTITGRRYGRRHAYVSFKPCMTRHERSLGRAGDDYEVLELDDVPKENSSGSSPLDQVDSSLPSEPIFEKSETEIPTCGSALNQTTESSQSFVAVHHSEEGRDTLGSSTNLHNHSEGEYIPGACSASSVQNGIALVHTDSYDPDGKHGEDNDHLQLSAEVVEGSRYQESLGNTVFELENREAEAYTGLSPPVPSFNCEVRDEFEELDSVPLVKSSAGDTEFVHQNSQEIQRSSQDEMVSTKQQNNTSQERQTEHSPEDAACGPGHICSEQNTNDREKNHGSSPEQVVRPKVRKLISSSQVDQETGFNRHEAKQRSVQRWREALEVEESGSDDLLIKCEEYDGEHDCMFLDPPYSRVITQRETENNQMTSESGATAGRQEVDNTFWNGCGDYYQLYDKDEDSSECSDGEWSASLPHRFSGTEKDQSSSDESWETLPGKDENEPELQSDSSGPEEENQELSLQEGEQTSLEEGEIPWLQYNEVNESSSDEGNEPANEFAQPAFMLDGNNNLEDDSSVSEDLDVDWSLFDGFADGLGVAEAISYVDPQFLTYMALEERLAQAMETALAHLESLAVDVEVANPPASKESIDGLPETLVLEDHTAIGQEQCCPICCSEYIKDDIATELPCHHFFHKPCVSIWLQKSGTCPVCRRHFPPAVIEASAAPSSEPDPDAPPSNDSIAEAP
UniProt O14733: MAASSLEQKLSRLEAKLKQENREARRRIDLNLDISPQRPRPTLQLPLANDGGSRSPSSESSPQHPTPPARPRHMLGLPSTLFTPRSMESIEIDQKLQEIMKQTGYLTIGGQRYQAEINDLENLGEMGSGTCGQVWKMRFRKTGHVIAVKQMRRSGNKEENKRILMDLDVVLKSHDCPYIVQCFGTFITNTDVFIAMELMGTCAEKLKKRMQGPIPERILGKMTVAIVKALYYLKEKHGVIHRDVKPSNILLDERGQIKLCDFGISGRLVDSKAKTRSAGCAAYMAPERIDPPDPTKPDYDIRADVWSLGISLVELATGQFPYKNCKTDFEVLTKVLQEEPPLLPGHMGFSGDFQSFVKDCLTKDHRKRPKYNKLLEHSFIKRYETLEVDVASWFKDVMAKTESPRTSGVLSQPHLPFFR
UniProt O14497, whole entry, looked up: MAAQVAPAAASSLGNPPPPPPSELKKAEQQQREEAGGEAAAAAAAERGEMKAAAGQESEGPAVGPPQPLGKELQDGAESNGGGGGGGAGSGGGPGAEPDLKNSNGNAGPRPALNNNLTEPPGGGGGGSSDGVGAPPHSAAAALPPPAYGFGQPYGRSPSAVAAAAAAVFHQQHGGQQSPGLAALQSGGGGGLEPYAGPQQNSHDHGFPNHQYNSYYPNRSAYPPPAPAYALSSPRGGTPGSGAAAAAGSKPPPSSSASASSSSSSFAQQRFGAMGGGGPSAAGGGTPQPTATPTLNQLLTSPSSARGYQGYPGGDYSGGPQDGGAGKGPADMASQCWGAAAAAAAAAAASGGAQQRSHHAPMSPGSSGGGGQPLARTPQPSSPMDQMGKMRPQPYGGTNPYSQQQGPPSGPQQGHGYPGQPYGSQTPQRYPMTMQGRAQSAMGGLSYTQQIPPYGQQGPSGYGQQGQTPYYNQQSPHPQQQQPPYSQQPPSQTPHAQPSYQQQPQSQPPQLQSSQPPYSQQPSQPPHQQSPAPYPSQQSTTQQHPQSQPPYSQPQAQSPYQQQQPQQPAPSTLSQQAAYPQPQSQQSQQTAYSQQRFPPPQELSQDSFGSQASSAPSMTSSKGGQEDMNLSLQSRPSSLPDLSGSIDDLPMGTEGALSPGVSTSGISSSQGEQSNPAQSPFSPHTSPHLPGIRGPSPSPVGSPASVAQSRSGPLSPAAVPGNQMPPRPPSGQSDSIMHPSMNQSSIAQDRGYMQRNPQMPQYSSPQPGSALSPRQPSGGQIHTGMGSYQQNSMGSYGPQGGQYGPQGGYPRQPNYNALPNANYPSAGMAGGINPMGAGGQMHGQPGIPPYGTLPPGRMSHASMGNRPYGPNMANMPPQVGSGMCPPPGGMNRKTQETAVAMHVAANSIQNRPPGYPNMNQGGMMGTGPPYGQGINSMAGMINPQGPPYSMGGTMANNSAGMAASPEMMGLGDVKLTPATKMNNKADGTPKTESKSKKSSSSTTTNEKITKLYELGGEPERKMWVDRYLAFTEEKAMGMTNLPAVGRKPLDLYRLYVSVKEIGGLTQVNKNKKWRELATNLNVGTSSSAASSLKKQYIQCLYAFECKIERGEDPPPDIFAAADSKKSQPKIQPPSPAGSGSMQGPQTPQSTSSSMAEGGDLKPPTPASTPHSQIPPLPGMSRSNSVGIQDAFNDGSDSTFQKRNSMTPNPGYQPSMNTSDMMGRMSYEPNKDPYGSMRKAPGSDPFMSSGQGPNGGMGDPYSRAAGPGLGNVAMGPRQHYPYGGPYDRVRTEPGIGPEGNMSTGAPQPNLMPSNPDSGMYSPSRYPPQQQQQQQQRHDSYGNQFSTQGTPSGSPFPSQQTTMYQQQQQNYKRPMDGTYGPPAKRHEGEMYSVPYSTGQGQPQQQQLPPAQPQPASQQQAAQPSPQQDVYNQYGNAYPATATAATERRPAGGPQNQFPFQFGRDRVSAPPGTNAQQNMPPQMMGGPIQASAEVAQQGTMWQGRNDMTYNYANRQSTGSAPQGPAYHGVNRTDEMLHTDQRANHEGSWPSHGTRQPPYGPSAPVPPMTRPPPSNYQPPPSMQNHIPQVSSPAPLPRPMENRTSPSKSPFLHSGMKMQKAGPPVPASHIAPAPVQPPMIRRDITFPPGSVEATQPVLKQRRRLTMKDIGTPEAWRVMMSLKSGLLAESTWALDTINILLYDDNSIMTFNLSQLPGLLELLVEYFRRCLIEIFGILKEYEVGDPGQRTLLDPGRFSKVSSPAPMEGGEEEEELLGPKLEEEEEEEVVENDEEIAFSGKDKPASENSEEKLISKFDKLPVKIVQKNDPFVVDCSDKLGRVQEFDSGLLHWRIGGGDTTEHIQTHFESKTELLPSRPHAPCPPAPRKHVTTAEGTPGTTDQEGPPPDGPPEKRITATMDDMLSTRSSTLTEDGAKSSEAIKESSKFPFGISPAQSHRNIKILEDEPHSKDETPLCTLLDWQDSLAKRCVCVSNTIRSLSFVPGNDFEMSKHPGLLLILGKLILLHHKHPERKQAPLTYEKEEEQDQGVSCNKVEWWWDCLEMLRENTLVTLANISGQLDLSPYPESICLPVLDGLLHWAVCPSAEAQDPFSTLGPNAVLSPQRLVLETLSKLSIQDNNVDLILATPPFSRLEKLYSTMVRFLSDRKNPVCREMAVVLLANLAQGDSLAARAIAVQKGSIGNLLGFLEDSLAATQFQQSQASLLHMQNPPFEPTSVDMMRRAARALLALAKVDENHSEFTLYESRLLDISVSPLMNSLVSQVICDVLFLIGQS
UniProt O15269: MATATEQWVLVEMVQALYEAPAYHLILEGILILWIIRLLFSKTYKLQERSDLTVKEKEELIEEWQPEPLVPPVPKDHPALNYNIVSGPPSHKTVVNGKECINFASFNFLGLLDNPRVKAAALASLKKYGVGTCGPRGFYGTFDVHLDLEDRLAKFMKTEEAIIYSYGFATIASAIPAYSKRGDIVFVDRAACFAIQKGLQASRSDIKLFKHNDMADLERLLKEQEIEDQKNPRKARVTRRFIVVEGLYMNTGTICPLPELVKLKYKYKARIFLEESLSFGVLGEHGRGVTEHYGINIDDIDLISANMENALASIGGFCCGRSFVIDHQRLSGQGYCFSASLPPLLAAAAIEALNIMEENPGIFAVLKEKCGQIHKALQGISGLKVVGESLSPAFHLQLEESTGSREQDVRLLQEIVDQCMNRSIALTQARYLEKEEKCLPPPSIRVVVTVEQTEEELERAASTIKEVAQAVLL
UniProt O43159: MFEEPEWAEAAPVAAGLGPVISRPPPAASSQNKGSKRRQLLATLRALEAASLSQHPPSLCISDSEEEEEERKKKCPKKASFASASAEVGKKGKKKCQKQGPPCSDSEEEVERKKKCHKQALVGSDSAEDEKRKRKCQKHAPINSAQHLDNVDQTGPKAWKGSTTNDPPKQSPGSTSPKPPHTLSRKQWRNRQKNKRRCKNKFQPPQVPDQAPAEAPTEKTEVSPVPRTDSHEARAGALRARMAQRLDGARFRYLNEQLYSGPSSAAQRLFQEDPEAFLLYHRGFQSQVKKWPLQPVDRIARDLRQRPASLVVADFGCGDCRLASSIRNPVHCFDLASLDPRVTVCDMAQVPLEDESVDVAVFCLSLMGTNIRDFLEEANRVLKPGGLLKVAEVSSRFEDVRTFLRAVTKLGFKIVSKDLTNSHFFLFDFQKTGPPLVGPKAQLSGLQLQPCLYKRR
UniProt O15347: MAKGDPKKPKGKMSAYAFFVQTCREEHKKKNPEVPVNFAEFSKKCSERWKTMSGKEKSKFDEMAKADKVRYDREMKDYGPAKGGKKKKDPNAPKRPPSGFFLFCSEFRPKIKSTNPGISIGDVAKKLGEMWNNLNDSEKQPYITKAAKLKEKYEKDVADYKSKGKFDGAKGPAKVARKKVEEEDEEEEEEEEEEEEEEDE
UniProt O00442: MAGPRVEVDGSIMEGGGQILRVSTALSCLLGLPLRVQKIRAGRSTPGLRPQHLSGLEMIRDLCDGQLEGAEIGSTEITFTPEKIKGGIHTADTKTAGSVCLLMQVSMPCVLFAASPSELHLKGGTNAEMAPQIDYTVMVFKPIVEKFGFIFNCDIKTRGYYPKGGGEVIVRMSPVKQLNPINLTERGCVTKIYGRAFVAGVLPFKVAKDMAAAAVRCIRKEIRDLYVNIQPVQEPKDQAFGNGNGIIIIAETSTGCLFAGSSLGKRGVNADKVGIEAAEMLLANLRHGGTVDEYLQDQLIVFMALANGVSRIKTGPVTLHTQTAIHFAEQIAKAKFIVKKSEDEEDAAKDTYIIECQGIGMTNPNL
UniProt O00151: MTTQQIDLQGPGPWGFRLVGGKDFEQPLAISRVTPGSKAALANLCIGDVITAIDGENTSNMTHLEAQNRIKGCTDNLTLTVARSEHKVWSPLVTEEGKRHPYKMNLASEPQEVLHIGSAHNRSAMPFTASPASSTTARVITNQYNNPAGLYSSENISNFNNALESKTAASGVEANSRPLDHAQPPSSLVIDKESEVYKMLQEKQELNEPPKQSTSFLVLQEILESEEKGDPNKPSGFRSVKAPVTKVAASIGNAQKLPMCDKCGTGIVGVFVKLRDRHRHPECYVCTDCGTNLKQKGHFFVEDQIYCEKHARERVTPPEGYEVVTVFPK
UniProt O00232: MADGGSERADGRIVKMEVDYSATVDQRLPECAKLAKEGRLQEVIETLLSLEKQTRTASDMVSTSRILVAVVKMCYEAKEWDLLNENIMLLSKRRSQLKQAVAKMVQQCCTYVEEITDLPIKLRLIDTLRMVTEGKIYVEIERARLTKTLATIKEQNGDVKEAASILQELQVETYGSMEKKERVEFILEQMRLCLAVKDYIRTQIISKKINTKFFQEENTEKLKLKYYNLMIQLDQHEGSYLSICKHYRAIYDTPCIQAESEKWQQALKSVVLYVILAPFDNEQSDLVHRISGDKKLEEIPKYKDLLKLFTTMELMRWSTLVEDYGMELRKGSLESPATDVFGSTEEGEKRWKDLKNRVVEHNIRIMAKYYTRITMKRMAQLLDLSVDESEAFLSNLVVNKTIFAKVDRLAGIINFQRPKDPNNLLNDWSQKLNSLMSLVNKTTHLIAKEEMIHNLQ
UniProt O14641: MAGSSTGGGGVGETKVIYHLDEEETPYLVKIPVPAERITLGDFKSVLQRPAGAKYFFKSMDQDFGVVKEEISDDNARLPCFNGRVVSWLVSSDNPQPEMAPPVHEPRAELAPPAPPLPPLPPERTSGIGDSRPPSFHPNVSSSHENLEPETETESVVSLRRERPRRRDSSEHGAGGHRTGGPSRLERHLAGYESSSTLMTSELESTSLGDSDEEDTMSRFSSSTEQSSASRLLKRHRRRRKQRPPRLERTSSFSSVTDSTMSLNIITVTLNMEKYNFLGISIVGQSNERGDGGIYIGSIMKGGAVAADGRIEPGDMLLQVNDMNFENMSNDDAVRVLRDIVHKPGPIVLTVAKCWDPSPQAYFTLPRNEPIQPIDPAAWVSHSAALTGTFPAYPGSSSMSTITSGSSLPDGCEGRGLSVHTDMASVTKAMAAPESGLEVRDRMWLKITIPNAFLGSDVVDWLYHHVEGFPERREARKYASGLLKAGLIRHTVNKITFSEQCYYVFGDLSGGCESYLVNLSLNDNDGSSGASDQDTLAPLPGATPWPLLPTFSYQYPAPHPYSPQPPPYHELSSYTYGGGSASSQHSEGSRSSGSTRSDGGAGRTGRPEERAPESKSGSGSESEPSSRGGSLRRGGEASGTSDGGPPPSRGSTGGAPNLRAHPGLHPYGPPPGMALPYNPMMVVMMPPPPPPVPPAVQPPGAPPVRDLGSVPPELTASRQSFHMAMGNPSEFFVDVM

The targets below were run with COC(=O)C#Cc1ccccc1 [methyl 3-phenylpropiolate] (assay: log2 ratio of iodoacetamide-alkyne labeling of the cysteine site, DMSO over compound (competition); higher = stronger covalent engagement of the cysteine by the compound, active = 1 or more). Details: 500 µM; treatment time 1 h; system: HEK293T cell lysate.
In short: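 Three replicates, each with duplicate channels, were prepared from HEK293T lysate (2 mg/mL) treated with vehicle or electrophile at 500 µM for 1 h at ambient temperature. Iodoacetamide alkyne was then applied for 1 h, and samples were clicked to sCIP-TMT reagents, pooled, trypsin-digested overnight at 37 °C, enriched on streptavidin, acid-eluted and analysed on Orbitrap Eclipse LC-MS/MS with FAIMS, with FragPipe quantification. The log2 competition ratio per cysteine is the mean control-channel divided by the mean compound-channel reporter intensity. Cysteines quantified in only one replicate were left out.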

Row | Target | log2 ratio of iodoacetamide-alkyne labeling
1 | SPTBN2 C2070 (UniProt O15020) | inactive: 0.506
2 | PJA2 C224 (UniProt O43164) | inactive: 0.22
3 | UniProt O14733_C360 | inactive: -0.0389
4 | PPP6C C192 (UniProt O00743) | inactive: 0.347
5 | ARID1A C1874 (UniProt O14497) | inactive: 0.298
6 | SPTLC1 C100 (UniProt O15269) | inactive: -0.144
7 | UniProt O43159_C317 | inactive: 0.138
8 | KMT2D C2249 (UniProt O14686) | inactive: 0.651
9 | HMGB3 C23 (UniProt O15347) | inactive: -0.18
10 | UniProt O00442_C100 | inactive: 0.0905
11 | PDLIM1 C283 (UniProt O00151) | inactive: 0.0356
12 | PSMD12 C31 (UniProt O00232) | inactive: 0.285
13 | KMT2D C5314 (UniProt O14686) | inactive: 0.502
14 | PDLIM1 C263 (UniProt O00151) | inactive: -0.0189
15 | DVL2 C412 (UniProt O14641) | inactive: 0.134

Part of the list above, in markdown.

| Row | Target | log2 ratio of iodoacetamide-alkyne labeling |
| --- | --- | --- |
| 5 | ARID1A C1874 (UniProt O14497) | inactive: 0.298 |
| 6 | SPTLC1 C100 (UniProt O15269) | inactive: -0.144 |
